Data taken from patent US20230158032A1, “PHARMACEUTICAL COMBINATION FOR THE TREATMENT OF MYELOPROLIFERATIVE NEOPLASMS” (Universitätsklinikum Jena, priority 2020, published 2023).
At least one compound was matched to its structure with a doubt left.

Columns and labels:
Ybx1 nuclear import = settings: treatment alone; murine and human Jak-mutated cells
murine Jak2V617F cells = experiment: Apoptosis assay (Annexin V/SYTOX flow cytometry); settings: Jak-i in combination with Ybx1 inactivation
[1] = tested on: primary human Jak2-mutated cells; experiment: Phosphoproteome of primary patient samples after Jak-i exposure; format: cell-based; settings: in vitro and in vivo exposure, 2 hours
[2] = tested on: Jak2V617F positive HEL cells; experiment: Xenograft of shRNA-treated Jak2V617F positive HEL cells in NSGS mice with Jak-i treatment; format: in vivo, mouse (NSGS) carrying human cells; settings: Jak-i alone

In the case of `N#CC[C@H](C1CCCC1)n1cc(-c2ncnc3[nH]ccc23)cn1` [Ruxolitinib], the Ybx1 nuclear import (Ybx1 nuclear import) is reported as “not detectable”, the apoptosis (murine Jak2V617F cells) is reported as “induction of apoptosis” and the MAPK phosphorylation [1] is reported as “did not affect”. For the same molecule, the disease progression [2] was “delayed disease progression only to a minor extent”.
